Article PMC4239075
No constants are given. Whether binding was seen depends on the method and setting. In cells and extracts the contact can be indirect. Some binding calls cover weakened binding; strength is not graded here. For some of these results: Where a sequence is shown, tags or fusion partners need not be part of it.

Sequences of proteins named here, by UniProt entry; tags and fusion partners are left off. A change or cut given only in a name is not applied to a line headed by its entry.
UniProt O09106: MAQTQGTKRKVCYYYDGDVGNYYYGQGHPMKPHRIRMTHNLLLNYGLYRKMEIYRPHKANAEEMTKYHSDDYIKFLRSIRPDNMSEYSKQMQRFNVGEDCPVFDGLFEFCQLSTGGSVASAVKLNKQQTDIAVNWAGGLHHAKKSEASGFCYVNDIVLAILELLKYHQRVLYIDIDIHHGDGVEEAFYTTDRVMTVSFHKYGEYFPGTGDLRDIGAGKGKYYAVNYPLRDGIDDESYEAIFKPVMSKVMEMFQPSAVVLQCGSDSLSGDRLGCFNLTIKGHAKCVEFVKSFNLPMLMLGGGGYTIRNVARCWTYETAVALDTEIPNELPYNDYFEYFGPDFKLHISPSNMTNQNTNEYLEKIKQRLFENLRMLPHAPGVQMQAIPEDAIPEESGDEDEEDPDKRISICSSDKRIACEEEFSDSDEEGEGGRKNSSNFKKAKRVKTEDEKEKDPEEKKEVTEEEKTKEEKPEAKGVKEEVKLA
UniProt Q08369: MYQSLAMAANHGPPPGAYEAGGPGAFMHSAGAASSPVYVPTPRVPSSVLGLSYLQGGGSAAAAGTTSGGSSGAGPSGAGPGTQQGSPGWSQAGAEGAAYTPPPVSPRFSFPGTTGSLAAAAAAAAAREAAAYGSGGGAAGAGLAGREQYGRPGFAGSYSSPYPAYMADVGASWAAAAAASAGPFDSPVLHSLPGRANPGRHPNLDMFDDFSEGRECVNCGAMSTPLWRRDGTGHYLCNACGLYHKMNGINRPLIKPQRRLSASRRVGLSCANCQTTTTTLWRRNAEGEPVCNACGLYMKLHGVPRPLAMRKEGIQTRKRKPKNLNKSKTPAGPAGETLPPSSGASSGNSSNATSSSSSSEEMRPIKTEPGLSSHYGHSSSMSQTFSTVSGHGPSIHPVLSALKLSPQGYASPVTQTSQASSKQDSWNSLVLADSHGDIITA

T1: Histone deacetylase 3 (mouse (endogenous in E14T ESCs)) (UniProt O88895)
T1 sequence: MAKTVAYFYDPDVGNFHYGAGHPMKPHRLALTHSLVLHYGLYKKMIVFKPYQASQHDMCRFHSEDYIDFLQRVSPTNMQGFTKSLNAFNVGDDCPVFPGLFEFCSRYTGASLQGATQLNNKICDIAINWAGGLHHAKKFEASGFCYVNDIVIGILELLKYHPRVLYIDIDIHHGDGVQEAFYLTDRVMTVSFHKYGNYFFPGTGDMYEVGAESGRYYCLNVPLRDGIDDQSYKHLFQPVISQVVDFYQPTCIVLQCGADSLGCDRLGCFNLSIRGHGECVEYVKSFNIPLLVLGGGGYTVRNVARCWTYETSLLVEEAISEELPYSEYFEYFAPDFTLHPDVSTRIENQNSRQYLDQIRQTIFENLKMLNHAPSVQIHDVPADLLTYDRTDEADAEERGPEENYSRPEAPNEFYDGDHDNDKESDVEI

T2: T-box transcription factor T/Bry (UniProt P20293)
T2 sequence: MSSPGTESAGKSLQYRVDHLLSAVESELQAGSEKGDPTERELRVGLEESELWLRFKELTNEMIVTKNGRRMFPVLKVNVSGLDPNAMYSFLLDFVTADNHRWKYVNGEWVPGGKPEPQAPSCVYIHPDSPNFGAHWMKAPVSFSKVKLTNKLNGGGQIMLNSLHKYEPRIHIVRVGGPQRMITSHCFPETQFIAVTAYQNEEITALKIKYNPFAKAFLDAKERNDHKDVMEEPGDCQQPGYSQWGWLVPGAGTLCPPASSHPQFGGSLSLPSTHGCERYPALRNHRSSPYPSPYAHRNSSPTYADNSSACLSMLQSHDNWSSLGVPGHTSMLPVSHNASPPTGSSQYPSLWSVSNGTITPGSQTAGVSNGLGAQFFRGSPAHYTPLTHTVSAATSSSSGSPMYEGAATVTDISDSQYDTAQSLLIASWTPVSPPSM


What was measured:
[1] = target: T1, Histone deacetylase 3 (mouse (endogenous in E14T ESCs)); assay: co-IP; ESC lysate (1% Triton X-100, 50 mM Tris-HCl pH 7.4, 150 mM NaCl) incubated with anti-HDAC1 or anti-HDAC3-coated A/G beads for 4 h or overnight, control IgG; western blot for T/Bry or Gata4
[2] = target: T2, T-box transcription factor T/Bry; assay: co-IP; IP with control IgG or T/Bry antibody from lysate of cells expressing T/Bry, western blot for HDAC1 and HDAC3; 5% input
[3] = target: Histone deacetylase 1 (mouse (endogenous in E14T ESCs)) (UniProt O09106); assay: co-IP; ESC lysate (1% Triton X-100, 50 mM Tris-HCl pH 7.4, 150 mM NaCl) incubated with anti-HDAC1 or anti-HDAC3-coated A/G beads for 4 h or overnight, control IgG; western blot for T/Bry or Gata4

binding [1] | binding [2] | binding [3] | Molecule
no binding | – | – | Gata4 (from UniProt Q08369 1-441)
– | binds | – | Histone deacetylase 1 (from UniProt O09106 1-482) (enzyme)
binds | – | binds | T-box transcription factor T/Bry (protein, UniProt P20293 1-436) MSSPGTESAGKSLQYRVDHLLSAVESELQAGSEKGDPTERELRVGLEESELWLRFKELTNEMIVTKNGRRMFPVLKVNVSGLDPNAMYSFLLDFVTADNHRWKYVNGEWVPGGKPEPQAPSCVYIHPDSPNFGAHWMKAPVSFSKVKLTNKLNGGGQIMLNSLHKYEPRIHIVRVGGPQRMITSHCFPETQFIAVTAYQNEEITALKIKYNPFAKAFLDAKERNDHKDVMEEPGDCQQPGYSQWGWLVPGAGTLCPPASSHPQFGGSLSLPSTHGCERYPALRNHRSSPYPSPYAHRNSSPTYADNSSACLSMLQSHDNWSSLGVPGHTSMLPVSHNASPPTGSSQYPSLWSVSNGTITPGSQTAGVSNGLGAQFFRGSPAHYTPLTHTVSAATSSSSGSPMYEGAATVTDISDSQYDTAQSLLIASWTPVSPPSM
